Measured values as given in publication PMC12669963, “PGAM5 cleavage and oligomerization equilibrates mitochondrial dynamics under stress by regulating DRP1 function” (Journal of Cell Science, 2025).

Sequences of proteins named here, by UniProt entry; tags and fusion partners are left off. A change or cut given only in a name is not applied to a line headed by its entry.
UniProt Q96HS1: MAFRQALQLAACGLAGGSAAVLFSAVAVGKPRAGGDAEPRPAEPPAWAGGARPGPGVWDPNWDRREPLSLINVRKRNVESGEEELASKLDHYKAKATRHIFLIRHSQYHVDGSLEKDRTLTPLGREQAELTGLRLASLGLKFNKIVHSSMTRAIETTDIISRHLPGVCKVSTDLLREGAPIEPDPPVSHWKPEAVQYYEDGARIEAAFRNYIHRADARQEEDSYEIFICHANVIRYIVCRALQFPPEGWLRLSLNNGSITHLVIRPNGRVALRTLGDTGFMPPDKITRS
UniProt O00429: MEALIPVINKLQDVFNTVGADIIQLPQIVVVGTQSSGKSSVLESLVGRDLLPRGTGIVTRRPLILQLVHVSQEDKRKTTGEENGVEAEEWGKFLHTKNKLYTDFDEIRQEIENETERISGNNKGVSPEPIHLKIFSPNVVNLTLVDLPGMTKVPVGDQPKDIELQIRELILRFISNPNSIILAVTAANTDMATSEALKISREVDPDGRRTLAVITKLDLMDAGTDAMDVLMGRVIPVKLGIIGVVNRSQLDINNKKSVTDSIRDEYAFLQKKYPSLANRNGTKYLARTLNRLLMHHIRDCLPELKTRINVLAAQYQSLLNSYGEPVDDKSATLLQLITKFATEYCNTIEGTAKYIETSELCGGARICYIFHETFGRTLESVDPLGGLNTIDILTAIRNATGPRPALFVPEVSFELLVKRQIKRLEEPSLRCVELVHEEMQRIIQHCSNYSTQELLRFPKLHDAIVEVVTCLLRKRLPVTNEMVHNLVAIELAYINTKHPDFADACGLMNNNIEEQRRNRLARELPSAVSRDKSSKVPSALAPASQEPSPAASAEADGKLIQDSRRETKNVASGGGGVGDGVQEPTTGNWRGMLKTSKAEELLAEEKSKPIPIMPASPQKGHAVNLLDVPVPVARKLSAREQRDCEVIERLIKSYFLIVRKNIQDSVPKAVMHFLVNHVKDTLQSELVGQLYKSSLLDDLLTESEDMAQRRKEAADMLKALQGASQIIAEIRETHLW

Molecular target: ΔMM WT PGAM5 GFP (UniProt Q96HS1)
Experiment: co-IP; GFP-trap beads on lysates of transfected HEK293 (methods: HEK293T) cells treated with DMSO or 20 μM CCCP for 2 h; lysis buffer 20 mM Tris-HCl pH 7.4, 200 mM NaCl, 5 mM EDTA, 10 mM MgCl2, 1% Triton X-100; western blot

- binding: binds
Substance: dynamin-related protein 1 (DRP1) (from UniProt O00429 1-736)

These are yes or no findings as the source states them, for the method shown. In cells and extracts the contact can be indirect. A result given as binding can be weak or reduced; the word gives no strength.
